# Earlier results in US20090111846A1, “PHARMACEUTICAL COMPOSITIONS COMPRISING DEXTROMETHORPHAN AND QUINIDINE FOR THE TREATMENT OF DEPRESSION, ANXIETY, AND NEURODEGENERATIVE DISORDERS” (Avanir Pharmaceuticals, priority 2006, published 2009).
# Read-outs that look alike come from different tables or passages of the source. At least one compound was matched to its structure with a doubt left.
# Experiments:
# [1] = tested on: NMDA receptor; details: cited from earlier work
# [2] = 48 hours, acute ischemic stroke, N=67; cited from earlier work
smiles,measurement,setting,value
CN1CC[C@@]23CCCC[C@@H]2[C@@H]1Cc1ccc(O)cc13 [dextrorphan],potency as NMDA receptor antagonist relative to dextromethorphan,[1],about 8 times
same,potency as NMDA receptor antagonist relative to dextromethorphan,[1]; listed as Dextrorphan,~8 times
same,neurological outcome vs placebo,[2],no difference in neurological outcome at 48 hours
